According to publication PMC10307882:
These are yes or no findings as the source states them, for the method shown. Binding seen in cells or lysates may run through a third protein. These calls come from enrichment with a bait or labelling near it, and not all partners need be listed.

Protein sequences, listed by entry. Tags and fused reporters are not part of them.
UniProt Q9Z120: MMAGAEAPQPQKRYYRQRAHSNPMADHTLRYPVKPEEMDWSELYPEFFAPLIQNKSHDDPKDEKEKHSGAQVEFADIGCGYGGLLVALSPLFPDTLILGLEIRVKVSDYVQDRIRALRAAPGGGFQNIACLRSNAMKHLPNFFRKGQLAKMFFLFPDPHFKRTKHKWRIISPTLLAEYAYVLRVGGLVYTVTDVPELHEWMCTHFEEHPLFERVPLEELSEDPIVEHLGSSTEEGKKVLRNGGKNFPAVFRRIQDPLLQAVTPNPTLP

Molecular target: T1, TMEM11 (mouse (endogenous in mouse cardiomyocytes)) (UniProt Q8BK08)
T1 sequence: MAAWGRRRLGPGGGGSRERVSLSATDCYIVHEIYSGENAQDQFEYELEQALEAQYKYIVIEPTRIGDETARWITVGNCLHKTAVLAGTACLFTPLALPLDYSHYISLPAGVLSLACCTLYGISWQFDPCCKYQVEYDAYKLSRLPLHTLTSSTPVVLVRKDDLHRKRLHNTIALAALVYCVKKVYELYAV
Assay: affinity purification with mass spectrometry; immunoprecipitation with anti-TMEM11 antibody from isolated cardiomyocytes, LC-MS/MS of the samples

With “METTL1 (from UniProt Q9Z120 1-268) (enzyme)” the binding was “binds”.
